Results from the supplement of paper PMC7024190.
Counter-ions that a name gives are not always drawn. This is one part of the list. Repeats in this data set agree poorly, so a single value says little.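 The cells were human embryonic kidney cells carrying a Renilla luciferase gene, driven by the HSV-TK promoter, on a plasmid put in briefly by transfection. This is the first-round screen of about ten thousand compounds, looking for ones that raise reporter output.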

tested on: HEK 293FT; experiment: log relative Renilla luciferase luminescence (reporter expression vs reference, reference not stated) (log (base not stated)); higher = higher recombinant reporter expression; details: 10 µM; time after transfection 48 h

Row | SMILES | log
1 | O=C1C=CC(=O)c2ccccc21 [1,4-naphthoquinone] | -0.0284
2 | C[C@@H]1O[C@@H](O[C@H]2CC[C@]3(C=O)[C@H]4CC[C@]5(C)[C@@H](C6=CC(=O)OC6)CC[C@]5(O)[C@@H]4CC[C@]3(O)C2)[C@H](O)[C@H](O)[C@H]1O [convallatoxin] | -1.6
3 | CN1[C@@H]2C[C@@H](OC(=O)[C@H](CO)c3ccccc3)C[C@H]1[C@@H]1O[C@@H]12 [scopolamine hydrobromide] | -0.0115
4 | CC1(C)C2CC(=O)[C@]3(C)C(CC[C@@]4(C)[C@H](c5ccoc5)OC(=O)C5OC543)[C@@]2(C)[C@@H](O)C[C@H]1O (stereo partly specified) [1,3-dideacetyl-7-deacetoxy-7-oxokhivorin] | 0.194
5 | CNc1ccccc1C(=O)O [n-methylanthranilic acid] | 0.0878
6 | CN1C[C@H](C(=O)N[C@]2(C)O[C@@]3(O)[C@@H]4CCCN4C(=O)[C@H](Cc4ccccc4)N3C2=O)C=C2c3cccc4[nH]cc(c34)C[C@H]21 [ergotamine tartrate] | 0.0949
7 | [O-][n+]1ccccc1[S-].[O-][n+]1ccccc1[S-].[Zn+2] [pyrithione zinc] | -1.28
8 | CCC(C)C(=O)O[C@@H]1C[C@@]2(C)[C@H](c3ccoc3)OC(=O)CC23OC2(C)O[C@]14[C@]1(C)[C@@H](CC(=O)OC)C5(C)CC1(O)[C@](O)(C5OC(=O)C1(C)OC1C)[C@@H](OC(C)=O)[C@]34O2 (stereo partly specified) [utilin] | 0.29
9 | C=CCc1ccc2c(c1)OCO2 [safrole] | -0.00179
10 | COP(=O)(OC)C(O)C(Cl)(Cl)Cl (stereo unspecified) [trichlorfon] | 0.505
11 | C[C@@H]1C(=O)O[C@H]2[C@H]1CC[C@@]1(C)C=CC(=O)[C@@]3(C)O[C@@]213 [epoxy (4,5alpha)-4,5-dihydrosantonin] | -0.000568
12 | C=CCN1CC[C@]23c4c5ccc(O)c4O[C@H]2C(=O)CC[C@@]3(O)[C@H]1C5 [naloxone hydrochloride] | 0.0918
13 | O=c1n(Cl)c(=O)n(Cl)c(=O)n1Cl [symclosene] | 0.0948
14 | C[C@]12CCC(=O)C=C1C=C[C@@H]1[C@@H]2CC[C@@]2(C)[C@H]1CC[C@@]2(O)CCC(=O)O [canrenoic acid, potassium salt] | 0.0669
15 | CC[C@@H](C(=O)[C@@H](C)[C@@H](O)[C@H](C)[C@@H]1O[C@@H]([C@@H](CC)C(=O)O)CC[C@@H]1C)[C@H]1O[C@]2(C=C[C@@H](O)[C@]3(CC[C@@](C)([C@H]4CC[C@](O)(CC)[C@H](C)O4)O3)O2)[C@H](C)C[C@@H]1C [salinomycin, sodium] | -1.96
16 | CC(=O)O[C@@H]1[C@H]2CC[C@H]3[C@@](C)(O)[C@@H]4C[C@H](O)C(C)(C)[C@@]4(O)[C@H](O)C[C@@]13C[C@@]2(C)O [grayanotoxin i] | 0.0183
17 | Cc1cccc(C)c1NC(=O)CN1CCCC1=O [nefiracetam] | 0.0463
18 | CO[C@H]1[C@H](O)[C@H](O[C@H]2CC[C@@]3(C=O)[C@H](CC[C@@H]4[C@@H]3CC[C@]3(C)[C@@H](C5=CC(=O)OC5)CC[C@]43O)C2)O[C@@H](C)[C@@H]1O [peruvoside] | -1.55
19 | S=C=NCc1ccccc1 [benzyl isothiocyanate] | 0.117
20 | COP(=O)(OC)OC=C(Cl)Cl [dichlorvos] | 0.0536
21 | c1ccc2c(c1)Nc1ccccc1S2 [phenothiazine] | -0.0745

Row | SMILES | log
22 | C[C@]12CC[C@H]3[C@@H](CCC4=CC(=O)CC[C@@]43C)[C@@H]1CC[C@@H]2O [testosterone] | -0.689
23 | O=c1c2ccccc2[se]n1-c1ccccc1 [ebselen] | -0.174
24 | Cc1ccc(/N=C/N(C)/C=N/c2ccc(C)cc2C)c(C)c1 [amitraz] | -1.41
25 | O=c1ccc2cc(O[C@@H]3O[C@H](CO)[C@@H](O)[C@H](O)[C@H]3O)c(O)cc2o1 [esculin monohydrate] | 0.147
26 | COc1cc2c3cc1Oc1c(OC)c(OC)cc4c1[C@@H](Cc1cccc(c1)Oc1ccc(c(O)c1)C[C@@H]3N(C)CC2)N(C)CC4 [berbamine hydrochloride] | 0.0908
27 | NCC(O)c1ccc(O)cc1 (stereo unspecified) [octopamine hydrochloride] | 0.097
28 | O=C1c2ccccc2-c2cccc3cccc1c23 [benzanthrone] | 0.164
29 | CC(=O)O[C@H]1C[C@@H]2CC[C@@H]3[C@H](CC[C@@]4(C)[C@H]3C[C@H]([N+]3(C)CCCCC3)[C@@H]4OC(C)=O)[C@@]2(C)C[C@@H]1[N+]1(C)CCCCC1 [pancuronium bromide] | -0.033
30 | C[C@]12CCC(=O)C[C@@H]1CC[C@@H]1[C@@H]2CC[C@]2(C)C(=O)CC[C@@H]12 [5alpha-androstan-3,17-dione] | 0.127
31 | CC1C=CC=CCCC=CC=CC=CC=CC(OC2OC(C)C(O)C(N)C2O)CC2OC(O)(CC(O)C(O)CCC(O)CC(O)CC(O)CC(=O)OC(C)C(C)C1O)CC(O)C2C(=O)O (stereo unspecified) [nystatin] | -0.149
32 | CC(=O)O[C@H]1CC[C@@]2(C)[C@H](CC[C@@H]3[C@@H]2CC[C@]2(C)[C@@H](C4=CC(=O)OC4)[C@@H](OC(C)=O)C[C@]32O)C1 [gitoxigenin diacetate] | -1.36
33 | C[C@@H]1C[C@H](O)[C@@]2(O)[C@]13CC(=O)OC[C@@]2(C)[C@@](C)(O)C(=O)C3 [pseudo-anisatin] | 0.204
34 | N#C[C@H](O[C@@H]1O[C@H](CO[C@@H]2O[C@H](CO)[C@@H](O)[C@H](O)[C@H]2O)[C@@H](O)[C@H](O)[C@H]1O)c1ccccc1 [amygdalin] | 0.0631
35 | CC[C@@H](CO)NC(=O)[C@@H]1C=C2c3cccc4c3c(cn4C)C[C@H]2N(C)C1 [methysergide maleate] | 0.00491
36 | COc1cc2c(c(OC)c1OC)-c1ccc(OC)c(=O)cc1[C@@H](NC(C)=O)CC2 [colchicine] | -0.19
37 | C[C@]12CC[C@H](O)CC1=CC[C@@H]1[C@@H]2CC[C@]2(C)C(=O)CC[C@@H]12 [prasterone] | 0.07
38 | N#Cc1c(Cl)c(Cl)c(Cl)c(C#N)c1Cl [tetrachloroisophthalonitrile] | -1.51
39 | c1ccc2c(c1)OCC(C1=NCCN1)O2 (stereo unspecified) [idazoxan hydrochloride] | 0.12
40 | CC1=C2C(=CO[C@H](C)[C@H]2C)C(O)=C(C(=O)O)C1=O [citrinin] | 0.0799
41 | CC(C)c1cccc(C(C)C)c1O [propofol] | 0.184
42 | Cc1nccc2c1[nH]c1cc(O)ccc12 [harmol hydrochloride] | 0.0278

For reference, part of the list above:
Row | SMILES | log
29 | CC(=O)O[C@H]1C[C@@H]2CC[C@@H]3[C@H](CC[C@@]4(C)[C@H]3C[C@H]([N+]3(C)CCCCC3)[C@@H]4OC(C)=O)[C@@]2(C)C[C@@H]1[N+]1(C)CCCCC1 [pancuronium bromide] | -0.033
30 | C[C@]12CCC(=O)C[C@@H]1CC[C@@H]1[C@@H]2CC[C@]2(C)C(=O)CC[C@@H]12 [5alpha-androstan-3,17-dione] | 0.127
31 | CC1C=CC=CCCC=CC=CC=CC=CC(OC2OC(C)C(O)C(N)C2O)CC2OC(O)(CC(O)C(O)CCC(O)CC(O)CC(O)CC(=O)OC(C)C(C)C1O)CC(O)C2C(=O)O (stereo unspecified) [nystatin] | -0.149
32 | CC(=O)O[C@H]1CC[C@@]2(C)[C@H](CC[C@@H]3[C@@H]2CC[C@]2(C)[C@@H](C4=CC(=O)OC4)[C@@H](OC(C)=O)C[C@]32O)C1 [gitoxigenin diacetate] | -1.36

Next structures.

Row | SMILES | log
43 | N[C@H](CO)Cc1ccccc1 [l-phenylalaninol] | 0.0843
44 | Cc1[nH]c2ccccc2c1CN(C)C [2-methyl gramine] | 0.142
45 | CC(=O)O[C@H]1CC[C@@]2(C)C(=CC[C@@H]3[C@@H]2CC[C@]2(C)C(=O)CC[C@@H]32)C1 [prasterone acetate] | 0.0454
46 | O=C1C2CC=CCC2C(=O)N1SC(Cl)(Cl)Cl (stereo unspecified) [captan] | -1.45
47 | CN1C[C@H](CNC(=O)OCc2ccccc2)C[C@@H]2c3cccc4c3c(cn4C)C[C@H]21 [metergoline] | 0.0525
48 | COC1=CC(=O)O[C@@H](/C=C/c2ccccc2)C1 [kawain] | 0.00852
49 | Oc1ccc2c3c1O[C@H]1[C@@H](O)CC[C@@]4(O)[C@@H](C2)N(CC2CCC2)CC[C@]314 [nalbuphine hydrochloride] | -0.0615
50 | O=C(O)CC[N+](=O)[O-] [bovinocidin] | 0.147
51 | CN1CCc2cc3c(cc2[C@H]1[C@@H]1OC(=O)c2c1ccc1c2OCO1)OCO3 [bicuculline (+)] | 0.147
52 | C=CCc1ccc(OC)cc1 [estragole] | -0.0356
53 | NCC1(CC(=O)O)CCCCC1 [gabapentin] | -0.138
54 | COc1cc2ccc(=O)oc2c2ccoc12 [sphondin] | 0.0658
55 | O=c1cccc2n1C[C@@H]1CNC[C@H]2C1 [cytisine] | 0.0489
56 | O=C(CCCN1CCC2(CC1)C(=O)NCN2c1ccccc1)c1ccc(F)cc1 [spiperone] | 0.3
57 | CC1=CCCC2C1(C)CCC(C)C2(C)CC/C(C)=C/Cn1c[n+](C)c2c(N)ncnc21 (stereo unspecified) [agelasine (stereochemistry of diterpene unknown)] | 0.0279
58 | CC1(C)C(=O)[C@@H]2O[C@@H]2[C@@]2(C)C1C[C@@H](O)[C@]1(C)C2CC[C@@]2(C)[C@H](c3ccoc3)OC(=O)C3OC321 (stereo partly drawn) [1,2alpha-epoxydeacetoxydihydrogedunin] | -0.235
59 | CC(N)C(O)c1ccccc1 (stereo unspecified) [phenylpropanolamine hydrochloride] | 0.152
60 | O=C(O)CF [sodium fluoroacetate] | 0.0145
61 | O=[N+]([O-])O[C@H]1CO[C@H]2[C@@H]1OC[C@H]2O[N+](=O)[O-] [isosorbide dinitrate] | 0.0697
62 | CC(O)(CS(=O)(=O)c1ccc(F)cc1)C(=O)Nc1ccc(C#N)c(C(F)(F)F)c1 (stereo unspecified) [bicalutamide] | -0.0109
63 | CCOC(=O)c1cncn1[C@H](C)c1ccccc1 [etomidate] | -0.0284

Row | SMILES | log
64 | CCC1(C2=NCCN2)Cc2ccccc2O1 (stereo unspecified) [efaroxan hydrochloride] | 0.0245
65 | CC[C@@H](CO)NC(=O)[C@@H]1C=C2c3cccc4[nH]cc(c34)C[C@H]2N(C)C1 [methylergonovine maleate] | -0.0723
66 | COc1cc2c(cc1OC)[C@@H]1C(=O)c3ccc4c(c3O[C@@H]1CO2)CC(C(C)C)O4 (stereo partly specified) [dihydrorotenone] | -1.36
67 | CCCCOC(=O)c1ccccc1C(=O)OCCCC [dibutyl phthalate] | -1.53
68 | COc1ccc2c(c1OC)C(=O)O[C@@H]2[C@H]1c2cc3c(cc2CCN1C)OCO3 [hydrastine (1r, 9s)] | -0.0812
69 | Cc1cc(C(C#N)c2ccc(Cl)cc2)c(Cl)cc1NC(=O)c1cc(I)cc(I)c1O (stereo unspecified) [closantel] | -1.22
70 | O=C(O)c1nn(Cc2ccc(Cl)cc2Cl)c2ccccc12 [lonidamine] | 0.0354
71 | C[N+]12CC[C@@]34c5ccccc5N5C(=O)C[C@@H]6OCC=C(C1)[C@H](C[C@@H]32)[C@@H]6[C@H]54 (stereo partly specified) [strychnine methiodide] | 0.0163
72 | C[C@@H]1C[C@@H]([C@H](O)CC2CC(=O)NC(=O)C2)C(=O)[C@@H](C)C1 [cycloheximide] | -1.35
73 | COc1cc2c(cc1O)CCN[C@@H]2C [salsoline] | -0.0232
74 | CC(=O)O[C@H]1C(=O)[C@@]2(C)[C@H]([C@H](OC(=O)c3ccccc3)[C@]3(O)C[C@H](O)C(C)=C1C3(C)C)[C@]1(OC(C)=O)CO[C@@H]1C[C@@H]2O [baccatin iii] | 0.0567
75 | CC(C)(C#N)O[C@@H]1O[C@H](CO)[C@@H](O)[C@H](O)[C@H]1O [linamarin] | 0.134
76 | CC(C)(O)[C@@H]1[C@H]2OC(=O)[C@@H]1[C@]1(O)C[C@H]3O[C@]34C(=O)O[C@H]2[C@]14C [picrotin] | 0.145
77 | c1cncc([C@@H]2CCCCN2)c1 [anabasine hydrochloride] | 0.171
78 | C=C(C)[C@H]1Cc2c(ccc3c(=O)c4c(oc23)COc2cc(OC)c(OC)cc2-4)O1 [dehydrorotenone] | 0.122
79 | CCC(C)C(=O)OC1CC2(C)C(c3ccoc3)OC(=O)CC23OC2(C)OC34C(OC(=O)C(C)C)C3(O)C(OC(=O)C5(C)OC5C)C5(C)CC3(O)C(C)(C5CC(=O)OC)C14O2 (stereo unspecified) [entandrophragmin] | 0.085
80 | C[N+]1(C)CCc2cc3c(cc2[C@H]1[C@@H]1OC(=O)c2c1ccc1c2OCO1)OCO3 [bicuculline(-) methiodide] | 0.168
81 | C=CCc1cc(OC)c2c(c1OC)OCO2 [apiole] | 0.0459
